According to publication PMC3883281:
Results are given in words; binding and its absence hold for the method and conditions named. Binding seen in cells or lysates may run through a third protein. Binding can be weak; no strength is given. Blank lines part the entries; values can stand above or below the binder they belong to.

Target: AtSAG:GFP (Arabidopsis thaliana)
Experiment: co-IP; AtSAG:GFP as bait; one differing band of about 30 kDa on SDS-PAGE analysed further to identify the proteins; how they were identified and the conditions are not told

binding: binds
B1: protein encoded by At4g36700 (protein, UniProt F4JQG6 26-522)
chain: KSEESEEYDVAVPSCCGFSSPLLIKKDQWKPIFETKFGQISTVQIGNGCGGMGPYKIHSITLEPNTILLPLLLHSDMVFFVDSGSGILNWVDEEAKSTEIRLGDVYRLRPGSVFYLQSKPVDIFLGTKLKLYAIFSNNDECLHDPCFGAYSSITDLMFGFDETILQSAFGVPEGIIELMRNRTKPPLIVSETLCTPGVANTWQLQPRLLKLFAGSADLVDNKKKKEKKEKKEKVKKAKTFNVFESEPDFESPYGRTITINRKDLKVLKGSMVGVSMVNLTQGSMMGPHWNPWACEISIVLKGAGMVRVLRSSISSNTSSECKNVRFKVEEGDIFAVPRLHPMAQMSFNNDSLVFVGFTTSAKNNEPQFLAGEDSALRMLDRQVLAASLNVSSVTIDGLLGAQKEAVILECHSCAEGEIEKLKVEIERKKIDDERKRRHDERKKEEEEAKREEEERRKREEEEEKKRWPPQQPPQEEELRERQLPMEKEWEMEGEEES

binding: binds
B2: protein encoded by At3g01570 (protein, UniProt Q9SS98 1-183)
chain: MADVRTHSHQLQVHPQRQHEGGIKVLYPQSGPSSTQVLAVFVGVPIGGTLLTIAGLTLAGSVIGLMLAFPLFLIFSPVIVPAAFVIGLAMTGFLASGAIGLTGLSSMSWVLNYIRRAGQHIPEELEEAKHRLADMAEYVGQRTKDAGQTIEDKAHDVREAKTFDVRDRDTTKGTHNVRDTKTT
